PubChem BioAssay AID1159578, Peter MacCallum Cancer Centre | 2015

Screen: 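Genome-wide hunt for genes controlling movement of lymphatic endothelial cells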 (primary screen)
Cell system: human lymphatic endothelial cells
Knock-down reagent: siRNA pool against human genes, 40 nM
Timing: 48 h after transfection
Detection: 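High-content imaging of dye-stained cells in a scratch assay measures filled wound area and nuclei per well; duplicate means given as ratio to mock and robust z-score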
Reading the numbers: migration robust z-score: higher = faster migration into the scratch; nuclei per well: higher = more cells in the well
Hit rule: 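Migration changed when robust z exceeds 2 or falls below -2 and mean nuclei number is at least 3300; otherwise not called changed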
Calls: active = migration changed; inactive = no migration change, or too few cells
This is one part, drawn at random, of about 18,000 reagents tested. About 1,030 of them (5.7%) were called active. 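Inactive calls also include pools with fewer than 3300 nuclei, whose migration was not assessed.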 Raw values vary from plate to plate and are shown uncorrected. Entries without a mark were called inactive. Further read-outs or replicates are left out here. No sequences are given here.

target | migration robust z-score | migration class with cell-count check | nuclei per well, duplicate mean
CNBD1 (cyclic nucleotide binding domain containing 1) | 0.16 | migration z between -2 and 2; enough cells | 5017
BKGD (beta-keto-L-gulonate decarboxylase) | -0.52 | migration z between -2 and 2; enough cells | 6588
COL9A1 (collagen type IX alpha 1 chain) | -0.34 | migration z between -2 and 2; enough cells | 3904
PRR16 (proline rich 16) | 0.32 | migration z between -2 and 2; enough cells | 5927
AADACL2 (arylacetamide deacetylase like 2) | -1.23 | migration z between -2 and 2; enough cells | 4284
FANCC (FA complementation group C) | 0.52 | migration z between -2 and 2; enough cells | 6306
SLC37A1 | -0.05 | migration z between -2 and 2; enough cells | 4707
BLOC1S6 (biogenesis of lysosomal organelles complex 1 subunit 6) | 1.27 | migration z between -2 and 2; enough cells | 4956
ARPC1B (actin related protein 2/3 complex subunit 1B) | -0.16 | migration z between -2 and 2; enough cells | 4685
SMOC2 (SPARC related modular calcium binding 2) | 0.5 | migration z between -2 and 2; enough cells | 5194

Entries above whose gene name starts with B or b:
target | migration robust z-score | migration class with cell-count check | nuclei per well, duplicate mean
BKGD (beta-keto-L-gulonate decarboxylase) | -0.52 | migration z between -2 and 2; enough cells | 6588
BLOC1S6 (biogenesis of lysosomal organelles complex 1 subunit 6) | 1.27 | migration z between -2 and 2; enough cells | 4956

Additional entries follow.
target | migration robust z-score | migration class with cell-count check | nuclei per well, duplicate mean
SWT1 (SWT1 RNA endoribonuclease homolog) | 0.44 | migration z between -2 and 2; enough cells | 4498
DDX12P (DEAD/H-box helicase 12, pseudogene) | 0.05 | migration z between -2 and 2; enough cells | 6207
ZNF749 (zinc finger protein 749) | -1.31 | migration z between -2 and 2; enough cells | 6599
ZPBP (zona pellucida binding protein) | -0.05 | migration z between -2 and 2; enough cells | 4884
VRK3 (VRK serine/threonine kinase 3) | 0.26 | migration z between -2 and 2; enough cells | 6092
CDC6 (cell division cycle 6) | -0.94 | migration z between -2 and 2; enough cells | 6308
PDLIM1 (PDZ and LIM domain 1) | 0.83 | migration z between -2 and 2; enough cells | 4541
OR5H6 (olfactory receptor family 5 subfamily H member 6) | 0.34 | migration z between -2 and 2; enough cells | 6567
INSM2 (INSM transcriptional repressor 2) | -2.12 (active) | migration z below -2; enough cells | 4154
ISG20 (interferon stimulated exonuclease gene 20) | -0.08 | migration z between -2 and 2; enough cells | 6032
H3C12 (H3 clustered histone 12) | 1.1 | migration z between -2 and 2; enough cells | 5240
TMX3 (thioredoxin related transmembrane protein 3) | 1.27 | migration z between -2 and 2; enough cells | 7554
AGK (acylglycerol kinase) | 0.13 | migration z between -2 and 2; enough cells | 4619
